The values below come from patent US20230136569A1, “USE OF NMN TO REDUCE IMMUNODEPRESSION AND IMMUNOSENESCENCE” (NUVAMID SA, priority 2020, published 2023).

The structures appear in SMILES notation.

The nature of this data set: Weight gain and water consumption of mice given the compounds in drinking water. It is filed as in vivo. The settings on record: old mice, 500 mg/kg p.o. in drinking water; compared with the mice of 11 weeks (FIG. 1B). The protocol:
The administering of β-NMN at 500 mg/kg, of α-NMN at 500 mg/kg and of the vehicle (water) was obtained via oral route (p.o) in the drinking water to young and old mice. The solutions were prepared by dissolving the powder of β-NMN or α-NMN in the vehicle (water). The solution was used at ambient temperature for no more than 2 days and was freshly prepared for each new administration. The mice were weighed each week to adapt the dose of the compound to be administered. Throughout the entire phase, a standard food diet and tap water were provided ad libitum. The study comprised 4 groups each having 6 mice: • Group 1: young mice (aged 10 weeks)+drinking water (vehicle) • Groupe 2: old mice (aged 15 months)+drinking water (vehicle) • Group 3: old mice (aged 15 months)+compound I-B (alpha-NMN) in the drinking water • Group 4: old mice (aged 15 months)+compound I-A (beta-NMN) in the drinking water The water consumption of the mice was assessed per cage every other day. The mice were weighed every week. The mice in Group 3 were sacrificed after 4 weeks for organ collection and characterisation of T cell function. The mice in Group 4 were sacrificed after 6 weeks for organ collection and characterisation of T cell function. On the day of sacrifice, the mice were anaesthetised with Vetoflurane (isoflurane) and blood samples were taken from the retroorbital sinus. […]

Consider `NC(=O)c1ccc[n+]([C@@H]2O[C@H](COP(=O)([O-])O)[C@@H](O)[C@H]2O)c1` (stereo in doubt) [I-A, nicotinamide mononucleotide], for which the water consumption result was “did not have any effect on water consumption”.

Regarding `NC(=O)c1ccc[n+]([C@H]2O[C@H](COP(=O)([O-])O)[C@@H](O)[C@H]2O)c1` (stereo in doubt) [I-B, alpha nicotinamide mononucleotide], the water consumption entry is recorded as “did not have any effect on water consumption”.
